In article doi:10.1101/2024.04.17.589979:
No constants are given. Whether binding was seen depends on the method and setting. Some results given as binding are weak or reduced against the parent protein; the word gives no strength. For part of these data: Where a sequence is shown, tags or fusion partners need not be part of it.

Protein sequences, listed by entry. Tags and fused reporters are not part of them. Lines headed by an entry give the natural chain unless they say otherwise; changes in a name come on top. Residues count along the entry.
UniProt P08514: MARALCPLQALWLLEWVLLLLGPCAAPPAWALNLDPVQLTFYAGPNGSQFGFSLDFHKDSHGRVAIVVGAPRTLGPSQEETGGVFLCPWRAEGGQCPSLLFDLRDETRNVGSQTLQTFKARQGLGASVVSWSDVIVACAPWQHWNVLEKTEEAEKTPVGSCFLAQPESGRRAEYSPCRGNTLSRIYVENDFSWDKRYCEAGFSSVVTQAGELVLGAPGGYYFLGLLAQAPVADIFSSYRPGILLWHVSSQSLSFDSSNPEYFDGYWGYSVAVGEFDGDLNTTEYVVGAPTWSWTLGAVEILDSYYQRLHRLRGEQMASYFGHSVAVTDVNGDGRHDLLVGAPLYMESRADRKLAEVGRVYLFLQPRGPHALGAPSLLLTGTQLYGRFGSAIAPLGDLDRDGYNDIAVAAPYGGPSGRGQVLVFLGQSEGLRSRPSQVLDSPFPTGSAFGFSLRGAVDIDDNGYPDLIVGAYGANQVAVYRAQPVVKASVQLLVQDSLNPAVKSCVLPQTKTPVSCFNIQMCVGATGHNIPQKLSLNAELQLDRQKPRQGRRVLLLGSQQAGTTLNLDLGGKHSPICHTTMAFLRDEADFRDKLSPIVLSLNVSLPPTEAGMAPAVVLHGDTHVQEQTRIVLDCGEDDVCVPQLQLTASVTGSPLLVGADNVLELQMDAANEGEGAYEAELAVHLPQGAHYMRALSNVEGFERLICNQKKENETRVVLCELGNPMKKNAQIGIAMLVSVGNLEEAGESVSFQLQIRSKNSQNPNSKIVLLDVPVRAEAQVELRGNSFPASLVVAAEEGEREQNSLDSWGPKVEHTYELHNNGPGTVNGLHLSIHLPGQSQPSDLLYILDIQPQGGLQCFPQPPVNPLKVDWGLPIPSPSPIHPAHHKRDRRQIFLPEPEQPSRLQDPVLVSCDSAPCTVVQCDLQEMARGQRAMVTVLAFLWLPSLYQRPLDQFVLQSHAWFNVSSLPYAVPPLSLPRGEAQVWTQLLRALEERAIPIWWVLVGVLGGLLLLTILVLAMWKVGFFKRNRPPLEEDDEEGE
UniProt Q13444, residues 421-508: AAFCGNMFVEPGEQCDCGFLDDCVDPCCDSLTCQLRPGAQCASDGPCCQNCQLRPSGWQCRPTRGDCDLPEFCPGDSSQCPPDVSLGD

Experiments:
[1] = target: soluble recombinant integrin αIIbβ3 (ectodomain) (UniProt P08514); assay: ELISA
[2] = target: T1, Fibrinogen γ-chain C-terminal residues 390-411 fused to GST (γC390-411); assay: ELISA
T1 sequence: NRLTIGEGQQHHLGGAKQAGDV

[3] = target: recombinant integrin αIIbβ3 on CHO cells (αIIbβ3-CHO) (UniProt P08514); assay: flow cytometry on cells

## ADAM-15 disintegrin domain fused to GST (from UniProt Q13444 421-508) (domain or fragment)
[1]
  binding: binds

## soluble recombinant integrin αIIbβ3 (ectodomain) (from UniProt P08514 32-993; P05106 27-718) (receptor)
[2]
  binding: binds

## NRLTIGEGQQHHLGGAKQAGDV (domain or fragment, FITC label, site not stated) [FITC-labelled γC390-411]
[3]
  binding: binds
